The results in this text go back to patent US20240287138A1 (Merck Sharp & Dohme LLC, priority 2023, published 2024).

HELM strings list residues between dots; [ac] is acetyl, [am] amide, other brackets name non-standard units.

The data set is described as follows: general procedure: Fmoc solid-phase peptide synthesis; Rink Amide MBHA LL resin (100-200 mesh, 0.4 mmol/g loading, Novabiochem); DIC/Oxyma Pure; HATU/NMM. The settings on record: whole synthesis, 215 nm, scale of the general procedure 50 μmol (Liberty Blue), 100 μmol (Symphony X).

With “PEPTIDE1{[XClAc].[XNle].[X4Pal].[XPip].W.[XNxG42].N.[X4Pal].[XTrp7Cl].[XaMeS].[XPhe4COOH].Y.[XSar].[XSbMeW7OMe].C.[am]}$PEPTIDE1,PEPTIDE1,1:R3-15:R3$$$V2.0”, the “final purity (method not given)” value is listed as 93.5%.
